Consider 39 molecules from the supplement of paper PMC10373366.

Molecules are shown by their SMILES. Where a name gives a salt, the structure may show the parent alone. Some of the results follow. Most values come without repeats; read them as rough.

The experiment concerns patient-derived ovarian cancer cells (PDC). The experiment in a line: cell growth inhibition ratio vs untreated control (CCK8); higher = stronger inhibition of cell viability. The settings on record: 10 µM; 48 h. Here is the method: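 Natural product library (Topscience) screened at 10 µM final concentration for 48 h on ovarian cancer A2780 cells and patient-derived ovarian cancer cells (PDC) in 96-well plates; viability read by CCK8 and reported as inhibition ratio (%) relative to untreated control. Single-dose primary screen.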
Consider `O=c1ccc2cc(O)c(O)cc2o1` [Esculetin], for which the “cell growth inhibition ratio” value was 7.95%.

On to `COc1c2occc2cc2ccc(=O)oc12` [8-Methoxypsoralen], for which the “cell growth inhibition ratio” value is -5.15%.

As to `O=C1C=C(O)c2ccccc2C1=O` [Lawsone], the “cell growth inhibition ratio” value stood at 9.91%.

As for `Cc1cc(=O)oc2cc(O)ccc12` [4-Methylumbelliferone (4-MU)], the “cell growth inhibition ratio” value was 3.31%.

With `COc1cc2c3cc1Oc1c(OC)c(OC)cc4c1[C@@H](Cc1ccc(O)c(c1)Oc1ccc(cc1)C[C@@H]3N(C)CC2)N(C)CC4` [Berbamine dihydrochloride], the “cell growth inhibition ratio” value is -39.6%.

Regarding `O=c1cc[nH]c(=O)[nH]1` [Uracil], the “cell growth inhibition ratio” value is -3.09%.

Turning to `Cc1cc(O)cc(O)c1C(=O)O` [Orsellinic acid], the “cell growth inhibition ratio” value was -3.67%.

Regarding `C[C@@H]1O[C@@H](O[C@H]2[C@H](Oc3cc(O)c4c(=O)cc(-c5ccc(O)cc5)oc4c3)O[C@H](CO)[C@@H](O)[C@@H]2O)[C@H](O)[C@H](O)[C@H]1O` [Rhoifolin], the “cell growth inhibition ratio” value was -0.348%.

On to `COc1ccc2cc1Oc1ccc(cc1)C[C@H]1c3cc(c(OC)cc3CCN1C)Oc1c(OC)c(OC)cc3c1[C@H](C2)N(C)CC3` [Tetrandrine], for which the “cell growth inhibition ratio” value came out at 34.5%.

On to `O=C(/C=C/c1ccc(O)c(O)c1)O[C@@H]1C[C@](O)(C(=O)O)C[C@@H](O)[C@H]1O` [Chlorogenic Acid], for which the “cell growth inhibition ratio” value was -4.05%.

In the case of `O=C(/C=C/c1ccc(O)cc1)c1ccc(O)cc1O` [Isoliquiritigenin], the “cell growth inhibition ratio” value is -11.1%.

On to `C=C1CC23CCC4C(C)(C(=O)OC5OC(CO)C(O)C(O)C5O)CCCC4(C)C2CCC1(OC1OC(CO)C(O)C(OC2OC(CO)C(O)C(O)C2O)C1OC1OC(C)C(O)C(O)C1O)C3` (centres undefined) [Dulcoside B], for which the “cell growth inhibition ratio” value is -5.5%.

For `CC(C)=CCC[C@](C)(O[C@@H]1O[C@H](CO)[C@@H](O)[C@H](O)[C@H]1O)[C@H]1CC[C@]2(C)[C@@H]1[C@H](O)C[C@@H]1[C@@]3(C)CC[C@H](O)C(C)(C)[C@@H]3[C@@H](O[C@@H]3O[C@H](CO)[C@@H](O)[C@H](O)[C@H]3O[C@@H]3O[C@@H](C)[C@H](O)[C@@H](O)[C@H]3O)C[C@]12C` [Ginsenoside Re], the “cell growth inhibition ratio” value stood at 1.4%.

As for `Nc1nc(=O)c2c([nH]1)NCC(CNc1ccc(C(=O)N[C@@H](CCC(=O)O)C(=O)O)cc1)N2C=O` (some centres undefined) [Calcium folinate], the “cell growth inhibition ratio” value was -2.92%.

On to `Cc1c(S(=O)(=O)O)oc2c1C(=O)C(=O)c1c-2ccc2c1CCCC2(C)C` [Tanshinone IIA-sulfonic sodium], for which the “cell growth inhibition ratio” value amounted to 0.863%.

Consider `O=c1[nH]cnc2c1ncn2[C@@H]1O[C@H](CO)[C@@H](O)[C@H]1O` [Inosine], for which the “cell growth inhibition ratio” value worked out at 1.24%.

As for `Oc1nc(O)c2nc(O)[nH]c2n1`, the “cell growth inhibition ratio” value was -22.4%.

For the molecule `OC[C@@H](O)[C@@H](O[C@H]1O[C@H](CO)[C@@H](O)[C@H](O)[C@H]1O)[C@H](O)[C@@H](O)CO` [Maltitol], the “cell growth inhibition ratio” value was determined as 7.4%.

With `COc1ccc(C2CC(=O)c3c(O)cc(OC4OC(COC5OC(C)C(O)C(O)C5O)C(O)C(O)C4O)cc3O2)cc1OC` (centres undefined) [Methyl hesperidin], the “cell growth inhibition ratio” value turned out to be 9.83%.

In the case of `CN1CCc2cc3c(cc2C(=O)Cc2ccc4c(c2C1)OCO4)OCO3` [Protopine], the “cell growth inhibition ratio” value stood at 8.19%.

For `CC(/C=C/C=C(\C)C(=O)O[C@@H]1O[C@H](CO[C@@H]2O[C@H](CO)[C@@H](O)[C@H](O)[C@H]2O)[C@@H](O)[C@H](O)[C@H]1O)=C\C=C\C=C(C)\C=C\C=C(/C)C(=O)O[C@@H]1O[C@H](CO[C@@H]2O[C@H](CO)[C@@H](O)[C@H](O)[C@H]2O)[C@@H](O)[C@H](O)[C@H]1O` [Crocin], the “cell growth inhibition ratio” value was 14.9%.

`CC[C@H]1OC(=O)[C@H](C)[C@@H](O[C@H]2C[C@@](C)(OC)[C@@H](O)[C@H](C)O2)[C@H](C)[C@@H](O[C@@H]2O[C@H](C)C[C@H](N(C)C)[C@H]2O)[C@](C)(O)C[C@@H](C)[C@@H]2N[C@@H](COCCOC)O[C@H]([C@H]2C)[C@]1(C)O` [Dirithromycin]: the “cell growth inhibition ratio” value is 7.47%.

Consider `O=C1c2c(O)cc(O)cc2OC(c2ccc(O)c(O)c2)C1O` (centres undefined) [Taxifolin (Dihydroquercetin)], for which the “cell growth inhibition ratio” value was -7.27%.

Turning to `COC(=O)C[C@](O)(CCCC(C)(C)O)C(=O)O[C@@H]1C(OC)=C[C@]23CCCN2CCc2cc4c(cc2[C@H]13)OCO4` [Homoharringtonine], the “cell growth inhibition ratio” value was 89.5%.

Regarding `O=c1c2ccccc2oc2ccccc12` [Xanthone], the “cell growth inhibition ratio” value was -3.85%.

Take `C=C(C)[C@@H]1CC[C@]2(C)[C@H](CC=C3[C@@H]4[C@@H](C)[C@H](C)CC[C@]4(C)CC[C@]32C)[C@@]1(C)CCC(=O)O` [Roburic acid]: the “cell growth inhibition ratio” value was 20.3%.

In the case of `CC(C)=CCC[C@](C)(O)[C@H]1CC[C@]2(C)[C@@H]1[C@H](O)C[C@@H]1[C@@]3(C)CC[C@H](O[C@@H]4O[C@H](CO)[C@@H](O)[C@H](O)[C@H]4O[C@@H]4O[C@H](CO)[C@@H](O)[C@H](O)[C@H]4O)C(C)(C)[C@@H]3CC[C@]12C` [Ginsenoside Rg3], the “cell growth inhibition ratio” value was -0.41%.

In the case of `C[C@H](O)[C@H](O)[C@@H](O)[C@@H](O)C=O` [L-Rhamnose monohydrate], the “cell growth inhibition ratio” value was 0.83%.

Take `CC[C@H]1OC(=O)C[C@@H](O)[C@H](C)[C@@H](O[C@@H]2O[C@H](C)[C@@H](O[C@H]3C[C@@](C)(O)[C@@H](O)[C@H](C)O3)[C@H](N(C)C)[C@H]2O)[C@@H](CC=O)C[C@@H](C)C(=O)/C=C/C(C)=C/[C@@H]1CO[C@@H]1O[C@H](C)[C@@H](O)[C@@H](OC)[C@H]1OC` [Tylosin]: the “cell growth inhibition ratio” value was -4.99%.

For `CC(=O)Oc1cc(C)c(OC(C)=O)c2ccccc12` [Menadiol Diacetate], the “cell growth inhibition ratio” value worked out at 7.5%.

As to `Nc1ncnc2c1ncn2[C@@H]1O[C@H](CO)C[C@H]1O` [Cordycepin], the “cell growth inhibition ratio” value amounted to 5.16%.

Consider `O=C1c2cccc(O)c2C(=O)c2c(O)cccc21` [Antrapurol], for which the “cell growth inhibition ratio” value was determined as 21%.

As to `OC[C@@H](O)[C@@H](O)[C@H](O)[C@@H](O)CO` [D-Sorbitol], the “cell growth inhibition ratio” value was found to be 6.66%.

Take `CC[C@]1(O)C[C@H]2CN(CCc3c([nH]c4ccccc34)[C@@](C(=O)OC)(c3cc4c(cc3OC)N(C=O)[C@H]3[C@@](O)(C(=O)OC)[C@H](OC(C)=O)[C@]5(CC)C=CCN6CC[C@]43[C@@H]65)C2)C1` [Vincristine sulfate]: the “cell growth inhibition ratio” value was 45.5%.

Turning to `CCOC(=O)c1ccc(O)c(OC)c1` [Ethyl Vanillate], the “cell growth inhibition ratio” value turned out to be 9.04%.

`CC(=O)c1c(O)cc(O)cc1O` [Phloracetophenone]: the “cell growth inhibition ratio” value worked out at 6.92%.

Consider `C[C@H](CC[C@@H](O[C@@H]1O[C@H](CO[C@@H]2O[C@H](CO)[C@@H](O)[C@H](O)[C@H]2O)[C@@H](O)[C@H](O)[C@H]1O[C@@H]1O[C@H](CO)[C@@H](O)[C@H](O)[C@H]1O)C(C)(C)O)[C@H]1CC[C@@]2(C)[C@@H]3CC=C4[C@@H](CC[C@H](O[C@@H]5O[C@H](CO[C@@H]6O[C@H](CO)[C@@H](O)[C@H](O)[C@H]6O)[C@@H](O)[C@H](O)[C@H]5O)C4(C)C)[C@]3(C)[C@H](O)C[C@]12C` [Mogroside V], for which the “cell growth inhibition ratio” value is 17.4%.

Turning to `NC(=O)c1cccnc1` [Nicotinamide], the “cell growth inhibition ratio” value was 1.81%.

Turning to `C=C1C(=O)O[C@@H]2/C=C(\C)CC/C=C(\C)CC[C@@H]12` [Costunolide], the “cell growth inhibition ratio” value was 9.67%.
